{"source": "patent US5591825A", "about": "“Interleukin 4 signal transducers” (Tularik, Inc., priority 1994, dated 1997)", "biological_target": "T1, IL-4 Stat (STAT6), activated, tyrosine-phosphorylated (Homo sapiens) (UniProt P42226)", "T1 sequence": "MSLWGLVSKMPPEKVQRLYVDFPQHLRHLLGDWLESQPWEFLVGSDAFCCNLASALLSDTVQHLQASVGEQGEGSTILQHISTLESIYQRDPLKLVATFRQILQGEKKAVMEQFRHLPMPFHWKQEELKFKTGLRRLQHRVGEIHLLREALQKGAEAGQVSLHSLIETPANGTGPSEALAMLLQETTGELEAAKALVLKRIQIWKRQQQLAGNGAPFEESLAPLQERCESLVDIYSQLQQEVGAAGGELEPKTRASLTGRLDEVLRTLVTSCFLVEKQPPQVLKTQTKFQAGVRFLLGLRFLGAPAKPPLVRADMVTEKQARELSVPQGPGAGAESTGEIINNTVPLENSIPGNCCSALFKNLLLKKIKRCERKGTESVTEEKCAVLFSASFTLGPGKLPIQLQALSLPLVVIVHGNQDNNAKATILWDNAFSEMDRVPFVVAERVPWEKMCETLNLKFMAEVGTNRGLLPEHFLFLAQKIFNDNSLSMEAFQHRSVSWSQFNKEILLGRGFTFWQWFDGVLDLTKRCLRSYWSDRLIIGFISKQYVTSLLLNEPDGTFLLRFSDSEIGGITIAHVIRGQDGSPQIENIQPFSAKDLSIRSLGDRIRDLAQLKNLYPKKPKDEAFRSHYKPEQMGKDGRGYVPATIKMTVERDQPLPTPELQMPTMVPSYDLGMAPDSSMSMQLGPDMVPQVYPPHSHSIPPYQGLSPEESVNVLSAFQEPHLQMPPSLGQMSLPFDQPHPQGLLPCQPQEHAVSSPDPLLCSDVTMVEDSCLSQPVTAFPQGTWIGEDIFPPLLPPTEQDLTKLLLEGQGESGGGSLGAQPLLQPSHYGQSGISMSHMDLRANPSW", "experiment": "EMSA", "settings": "binding abolished by IL-4R phosphopeptides (Y578, Y606; complete inhibition at 300 uM), not by unphosphorylated peptides or IFN-g receptor phosphopeptide; purified native protein", "note": "The exact form of at least one protein or probe is not confirmed. Tags and fusion partners may be left off the protein sequences shown."}
{"sequence": "GTATTTCCCAGAAAAGGAAC (double strand) [IL-4 response element upstream of human FcgRI gene]", "values": [{"measurement": "binding result", "result": "binds"}]}
